In paper PMC2590617:
No constants are given. Whether binding was seen depends on the method and setting. Binding seen in cells or lysates may run through a third protein. Some results given as binding are weak or reduced against the parent protein; the word gives no strength.

Protein sequences, listed by entry. Tags and fused reporters are not part of them. Residues count along the entry.
UniProt O14763, residues 56-440: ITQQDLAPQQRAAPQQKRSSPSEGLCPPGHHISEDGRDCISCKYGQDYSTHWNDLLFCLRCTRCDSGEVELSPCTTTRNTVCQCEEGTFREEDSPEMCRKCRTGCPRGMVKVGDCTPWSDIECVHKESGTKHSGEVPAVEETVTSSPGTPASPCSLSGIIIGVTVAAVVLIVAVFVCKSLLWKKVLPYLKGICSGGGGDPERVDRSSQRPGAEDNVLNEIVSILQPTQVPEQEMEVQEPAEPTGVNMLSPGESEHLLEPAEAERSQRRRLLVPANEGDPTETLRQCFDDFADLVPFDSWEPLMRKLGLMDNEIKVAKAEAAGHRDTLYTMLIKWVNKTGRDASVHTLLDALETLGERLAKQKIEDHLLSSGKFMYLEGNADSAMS
UniProt Q13158: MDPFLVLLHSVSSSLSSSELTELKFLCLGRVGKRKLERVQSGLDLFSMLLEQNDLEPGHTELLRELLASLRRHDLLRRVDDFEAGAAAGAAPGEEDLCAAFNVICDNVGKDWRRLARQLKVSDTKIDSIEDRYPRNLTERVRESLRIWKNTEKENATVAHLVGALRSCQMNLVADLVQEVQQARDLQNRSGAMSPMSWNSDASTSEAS
UniProt P08581, residues 25-1390: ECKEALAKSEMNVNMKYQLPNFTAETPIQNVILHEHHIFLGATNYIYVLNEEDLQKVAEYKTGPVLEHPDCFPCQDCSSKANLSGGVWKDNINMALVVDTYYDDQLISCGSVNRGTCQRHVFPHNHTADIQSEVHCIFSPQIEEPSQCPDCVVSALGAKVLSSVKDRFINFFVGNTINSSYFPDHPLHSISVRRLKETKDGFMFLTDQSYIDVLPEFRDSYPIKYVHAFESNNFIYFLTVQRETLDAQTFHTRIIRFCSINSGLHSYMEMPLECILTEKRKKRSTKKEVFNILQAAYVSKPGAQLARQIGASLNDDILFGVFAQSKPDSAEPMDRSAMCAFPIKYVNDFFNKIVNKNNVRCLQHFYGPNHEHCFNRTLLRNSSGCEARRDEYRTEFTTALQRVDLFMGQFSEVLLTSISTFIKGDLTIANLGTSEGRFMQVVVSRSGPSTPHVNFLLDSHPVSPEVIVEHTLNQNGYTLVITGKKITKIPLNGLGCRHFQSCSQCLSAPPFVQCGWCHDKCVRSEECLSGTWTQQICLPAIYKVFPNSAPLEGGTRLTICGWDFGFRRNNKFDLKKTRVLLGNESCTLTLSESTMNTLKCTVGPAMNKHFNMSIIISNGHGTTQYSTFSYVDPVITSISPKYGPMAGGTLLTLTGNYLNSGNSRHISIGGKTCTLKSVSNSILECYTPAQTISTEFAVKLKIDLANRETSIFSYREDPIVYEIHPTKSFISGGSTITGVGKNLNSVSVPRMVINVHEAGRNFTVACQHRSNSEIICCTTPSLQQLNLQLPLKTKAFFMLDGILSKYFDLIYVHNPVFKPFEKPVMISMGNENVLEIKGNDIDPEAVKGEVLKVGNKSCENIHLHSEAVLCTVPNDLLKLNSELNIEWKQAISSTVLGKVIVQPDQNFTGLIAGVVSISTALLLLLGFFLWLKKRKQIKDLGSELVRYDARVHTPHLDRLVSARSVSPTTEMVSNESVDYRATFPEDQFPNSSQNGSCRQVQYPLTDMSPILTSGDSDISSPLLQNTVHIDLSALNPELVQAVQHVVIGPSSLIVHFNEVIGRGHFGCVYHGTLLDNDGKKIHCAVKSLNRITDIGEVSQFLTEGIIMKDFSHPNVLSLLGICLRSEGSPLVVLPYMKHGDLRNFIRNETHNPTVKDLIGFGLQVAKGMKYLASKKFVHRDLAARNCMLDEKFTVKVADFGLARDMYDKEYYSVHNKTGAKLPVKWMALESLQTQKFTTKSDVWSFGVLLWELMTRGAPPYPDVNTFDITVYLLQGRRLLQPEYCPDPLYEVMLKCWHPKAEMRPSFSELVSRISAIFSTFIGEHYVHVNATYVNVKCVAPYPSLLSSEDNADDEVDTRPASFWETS

Target: death receptor DR5, tumor necrosis factor receptor superfamily member 10b (TNFRSF10B) (human (endogenous in DAOY)) (UniProt O14763)
Assay: co-IP; DAOY cells pre-treated with HGF for 72 h, then TRAIL for 2 h; 500 ug total protein in lysis buffer (100 mM Tris-HCl, 5 uM EDTA, 1% NP-40) with 5 ug anti-DR5 antibody at 4°C, protein A/G beads overnight, 5 washes; Western blot for caspase 8, FLIP, FADD, c-Met and DR5

“Fas-associated death domain (FADD) (from UniProt Q13158 1-208)” was tested, and the binding was “binds”.
In the case of “c-Met, receptor of hepatocyte growth factor, transmembrane tyrosine kinase (from UniProt P08581 25-1390)”, the binding is reported as “no binding”.
